PMC5698275
No constants are given. Whether binding was seen depends on the method and setting. Some results given as binding are weak or reduced against the parent protein; the word gives no strength.

What was measured:
[1] = biological target: T1, S100A8 protein (mouse (endogenous in bone marrow Gr1+CD11b+ cells)) (UniProt P27005); assay: native gel or EMSA; lysate of bone marrow Gr1+CD11b+ cells from early septic mice (days 1-5 after CLP) resolved under non-denaturing conditions; immunoblot with anti-S100A8/A9 heterodimer antibody; band of ~24 kDa
T1 sequence: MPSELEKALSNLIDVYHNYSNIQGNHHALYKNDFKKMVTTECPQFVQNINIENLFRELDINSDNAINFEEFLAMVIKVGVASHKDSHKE

[2] = biological target: T1, S100A8 protein (mouse (endogenous in bone marrow Gr1+CD11b+ cells)); assay: condition: only in Gr1+CD11b+ cells from late septic mice; native gel or EMSA; lysate of bone marrow Gr1+CD11b+ cells from late septic mice (days 6-28 after CLP) resolved under non-denaturing conditions; immunoblot with anti-S100A8/A9 heterodimer antibody

binding [1]: binds
binding [2]: no binding
B1: S100A9 protein (protein, UniProt P31725 1-113)
chain: MANKAPSQMERSITTIIDTFHQYSRKEGHPDTLSKKEFRQMVEAQLATFMKKEKRNEALINDIMEDLDTNQDNQLSFEECMMLMAKLIFACHEKLHENNPRGHGHSHGKGCGK
